According to the supplement of paper PMC12889115:
The other results are listed elsewhere or left out. Values are raw readings; no control value is given beside them.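 In the initial screen, polymyxin B was used at a concentration that permeabilizes Salmonella's outer membrane but not its inner membrane. Maximum growth was set by DMSO wells with or without polymyxin B. Since plates varied, data were ranked per plate, and compounds giving the lowest OD600 advanced as hits.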

Test system: Salmonella enterica serovar Typhimurium SL1344
Experiment: bacterial growth OD600 after 18 h with compound and polymyxin B; higher = more bacterial growth (less inhibition)
Conditions: 50 µM, Mueller-Hinton broth

SMILES | bacterial growth OD600 (polymyxin B 1 µg/mL) | bacterial growth OD600 (polymyxin B 0.75 µg/mL)
Cc1ccc(SC2CCN(C(=O)c3cn(Cc4ccccc4F)nn3)CC2)cc1 | 0.106 | –
Cc1c(CN2Cc3ccccc3OC(c3ccccc3F)C2)cnn1C (configuration not stated) | – | 0.001
CCOc1cccc(CN2CCC(CCC(=O)Nc3ccc(OC)cc3OC)CC2)c1 | 0.886 | –
CN(C(=O)c1cccc2nccnc12)C1CCCN(CCCc2ccccc2)C1 (configuration not stated) | 0.808 | –
O=C(c1ccc(=O)[nH]n1)N1CCC(C2CCN(Cc3cccc(F)c3F)CC2)C1 (configuration not stated) | – | 0.983
Cc1cc(C)n(-c2cccc(CN(C)C(=O)C3CC(Cc4ccc(F)cc4)=NO3)c2)n1 (configuration not stated) | – | 0.462
CC(NC(=O)c1cn(CCC2CCCCC2)nn1)c1cnn(C)c1 (configuration not stated) | 0.844 | –
COCC(=O)N1CCC(C(=O)Nc2cccc(-c3cccc(Cl)c3)c2)CC1 | 0.834 | –
Cc1ccc(Oc2ncccc2CNC(=O)c2ccc3cc[nH]c3c2)cn1 | 1.07 | –
C=C(C)CNC(=O)c1coc(COc2cccc3cccnc23)n1 | 0.953 | –
O=C(CCn1cncn1)N(CC1CCN(C2Cc3ccccc3C2)CC1)CC1CCCO1 (configuration not stated) | 0.854 | –
COc1cc(C)ccc1OCc1nc(C(=O)NCc2csc(C)n2)co1 | – | 0.803
COc1cccc(C(=O)N2CCN(C(=O)CCC3(Cc4ccc(SC)cc4)CCC(=O)N3)CC2)c1 (configuration not stated) | – | 0.785
CO[C@H]1[C@H](NC(=O)Cc2cccs2)c2ccccc2C12CCN(Cc1cc(F)ccc1F)CC2 | – | 0.751
CCn1cc(CN2CCC(C(Cc3ccccc3Cl)N(C)C(=O)c3ccco3)CC2)c(C)n1 (configuration not stated) | – | 0.825
CCNC(=O)NC(C)c1cnc(N2CCCCCCC2)nc1C (configuration not stated) | – | 0.551

Structural class, the entries above containing a Cl atom
SMILES | bacterial growth OD600 (polymyxin B 1 µg/mL) | bacterial growth OD600 (polymyxin B 0.75 µg/mL)
COCC(=O)N1CCC(C(=O)Nc2cccc(-c3cccc(Cl)c3)c2)CC1 | 0.834 | –
CCn1cc(CN2CCC(C(Cc3ccccc3Cl)N(C)C(=O)c3ccco3)CC2)c(C)n1 (configuration not stated) | – | 0.825

More records.

SMILES | bacterial growth OD600 (polymyxin B 1 µg/mL) | bacterial growth OD600 (polymyxin B 0.75 µg/mL)
CCOC(=O)CNC(=O)NC1CC(=O)N(Cc2ccccc2Cl)C1 (configuration not stated) | 1.08 | –
O=C(NCc1ccccn1)c1cccc(OC2CCN(C(=O)C3CCCCC3)CC2)c1 | 0.819 | –
CC(NC1CCN(c2ccc(NC(=O)Cc3cccc(Cl)c3)cc2)CC1)c1cccs1 (configuration not stated) | – | 0.835
C=CCN(C(=O)Cn1nnnc1CN1CCCCCC1)C1CCS(=O)(=O)C1 (configuration not stated) | – | 0.821
O=C(c1ccc(OC2CCN(Cc3ccc(Cl)s3)CC2)cc1)N1CCCC1 | 1.05 | –
CCC(=O)NC1CC(=O)N(CCc2cccc(Cl)c2)C1 (configuration not stated) | 0.967 | –
COc1ccc(N2C(=O)CN(Cc3c[nH]cn3)CC23CCCC3)cc1 | – | 0.79
CN1CCC(N(C)C(=O)CCC2CCCN(Cc3ccccc3OC(F)F)C2)CC1 (configuration not stated) | 1.17 | –
COc1ccc(CC2CN(C(=O)C3CCC3)CCO2)cc1 (configuration not stated) | – | 1.01
CN(Cc1nccs1)C(=O)c1csc2nc(-c3ccc(C(F)(F)F)cc3)cn12 | 0.605 | –
COC(=O)c1ccc(C(=O)N(C)CC2CCCN(CCc3ccccc3F)C2)cc1 (configuration not stated) | 1.2 | –
O=C1N(Cc2ccc(F)c(F)c2)CCCC1(O)CN[C@H]1CC[C@H](O)CC1 (some centres not stated) | 0.907 | –
Cc1oc(-c2cccc(F)c2F)nc1CN1CCCCC1CO (configuration not stated) | 0.924 | –
c1ccc(Cc2noc(-c3ccc(N4CCCO4)nc3)n2)cc1 | – | 0.122
COC(=O)[C@@H](NC1CCN(c2ccc(C(=O)NCCN3CCOCC3)cc2)CC1)c1ccccc1 | – | 0.875
O=C(NC1Cc2ccccc2C1)C1CCC(=O)N(CCCc2ccccc2)C1 (configuration not stated) | 0.815 | –
